The target in experiment [1] is parathyroid hormone 1 receptor (PTH1R), C-tagged Citrine (human) (UniProt Q03431). Description: FRET or BRET.
In experiment [2] the target is PTH1R of the PathHunter CHO-K1 PTH1R β-arrestin cell line (UniProt Q03431). In words: split reporter.

Protein sequences, listed by entry. Tags and fused reporters are not part of them. Residues count along the entry.
UniProt Q03431, residues 27-593: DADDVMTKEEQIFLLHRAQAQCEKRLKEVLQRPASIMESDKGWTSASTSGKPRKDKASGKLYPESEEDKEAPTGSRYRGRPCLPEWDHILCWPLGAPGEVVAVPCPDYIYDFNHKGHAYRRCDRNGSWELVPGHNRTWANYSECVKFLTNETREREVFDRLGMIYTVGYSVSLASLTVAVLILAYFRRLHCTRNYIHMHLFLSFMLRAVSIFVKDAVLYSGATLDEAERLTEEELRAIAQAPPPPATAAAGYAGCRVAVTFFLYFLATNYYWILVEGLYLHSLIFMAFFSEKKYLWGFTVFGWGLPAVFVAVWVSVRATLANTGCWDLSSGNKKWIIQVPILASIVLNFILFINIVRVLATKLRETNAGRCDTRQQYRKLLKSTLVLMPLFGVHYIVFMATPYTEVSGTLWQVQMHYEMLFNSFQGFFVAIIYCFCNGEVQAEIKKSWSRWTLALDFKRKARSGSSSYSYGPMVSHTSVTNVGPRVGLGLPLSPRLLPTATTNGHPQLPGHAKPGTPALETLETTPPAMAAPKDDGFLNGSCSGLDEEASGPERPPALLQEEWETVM
UniProt O60894, residues 27-148: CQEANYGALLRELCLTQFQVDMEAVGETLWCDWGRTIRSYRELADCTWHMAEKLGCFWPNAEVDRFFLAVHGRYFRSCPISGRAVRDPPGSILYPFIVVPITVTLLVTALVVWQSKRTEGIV
UniProt P32121: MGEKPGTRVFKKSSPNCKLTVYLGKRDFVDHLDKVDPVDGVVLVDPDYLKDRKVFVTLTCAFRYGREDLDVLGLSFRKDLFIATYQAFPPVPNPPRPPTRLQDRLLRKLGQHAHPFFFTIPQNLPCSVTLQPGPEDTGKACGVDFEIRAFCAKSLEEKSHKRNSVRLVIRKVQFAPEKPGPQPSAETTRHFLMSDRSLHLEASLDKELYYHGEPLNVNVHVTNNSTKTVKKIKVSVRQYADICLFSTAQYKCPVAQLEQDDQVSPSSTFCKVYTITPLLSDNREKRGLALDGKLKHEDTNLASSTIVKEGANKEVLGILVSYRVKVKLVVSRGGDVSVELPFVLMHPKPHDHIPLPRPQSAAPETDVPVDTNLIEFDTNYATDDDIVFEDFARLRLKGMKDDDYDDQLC

This note sets out measurements from doi:10.1101/2024.04.16.588673 (bioRxiv, 2024).

These are yes or no findings as the source states them, for the method shown. In cells and extracts the contact can be indirect. Some results given as binding are weak or reduced against the parent protein; the word gives no strength.

Consider “receptor activity-modifying protein 1 (RAMP1), C-tagged Cerulean (from UniProt O60894 27-148)”, for which the binding result in experiment [1] is “no binding”.
For the substance “β-arrestin-2 of the PathHunter CHO-K1 PTH1R β-arrestin cell line (from UniProt P32121 1-409)”, the binding result in experiment [2] is given as “binds”.
